According to US20150153365A1:
These are yes or no findings as the source states them, for the method shown. A result given as binding can be weak or reduced; the word gives no strength.

Key:
[1] = target: zebrafish aplnrb (zebrafish); assay: AP-ELA binding assay on transfected 293T cells (FIG. 7G)
[2] = target: zebrafish aplnrb (zebrafish); assay: AP-ELA binding assay on transfected 293T cells (FIG. 7H)
[3] = target: zebrafish aplnrb (zebrafish); assay: AP-ELA binding assay on transfected HEK293T cells, chromogenic alkaline phosphatase read-out

Measured: binding

QRPVNLTMRRKLRKHNCLQRRCMPLHSRVPFP (peptide, not shown: large carriers) [ELA conjugated to Alkaline Phosphatase (AP-ELA)]
binds: all assays above
